{"source": "PubChem BioAssay AID1347423", "about": "(Functional Genomics Laboratory (NCATS/FGL), 2020)", "note": "Among all 52,000 sequences or so, about 210 (0.4%) were called active.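 The calls were made as follows: active = gene whose silencing raises cell survival under the drug, median off-target-corrected z-score across its silencing RNAs 2 or more; inactive = the rest.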 This is one part of the list."}
{"experiment": "Resistance to Poly (ADP-Ribose) Polymerase inhibitor: Gene Identification via Genome-wide siRNA Screen", "conditions": "mouse BRCA2 R2336H ES cells, olaparib, CellTiter-Glo viability; stronger effect = higher value", "procedure,_shortened": "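Genome-wide siRNA screen (3 siRNAs/gene, 20 nM) in mouse ES cells carrying hypomorphic BRCA2 R2336H; olaparib 500 nM added 48 h post-transfection, CellTiter-Glo viability 72 h later. Normalized to plate-median negative control; MAD z-scores, gene median, seed-adjusted.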"}
{"sequence": "GGAACAAUUGGUUUGUUAATT against Ms4a6b", "z-score": "inactive: 1.37"}
{"sequence": "GGAUGCAAGCAAAAUGCAGTT against Gpm6b", "z-score": "inactive: 1.09"}
{"sequence": "GCAUCGUGCAGAAUUUUGCTT against Ephb1", "z-score": "inactive: 1.39"}
{"sequence": "CCCUACUGUAUUAGAAAACTT against BC048355", "z-score": "inactive: 0.676"}
{"sequence": "GCUAGGAGACCUCUUCAUGTT against Mkrn2", "z-score": "inactive: 1.1"}
{"sequence": "GGGAUCAAAGCUUUUUUAGTT against Mad2l1", "z-score": "inactive: 0.283"}
{"sequence": "CGCUUAAAACAUUUGGUUATT against Rnf170", "z-score": "inactive: 0.447"}
{"sequence": "CCUCUUUUUCUGUUACCGCTT against Oatl1", "z-score": "inactive: 1.03"}
{"sequence": "GGCUGUUGACAUUUUACAATT against B130016L12Rik", "z-score": "inactive: -2.74"}
{"sequence": "GGAUUCCCUGUAUGCCCAATT against Rpl36al", "z-score": "inactive: -0.128"}
{"sequence": "GGAAGUCAUUGCUGUCGUCTT against Mov10l1", "z-score": "inactive: -0.224"}
{"sequence": "GGAAGUUGACACCAAAACCTT against Magel2", "z-score": "inactive: 0.407"}
{"sequence": "GGAGUUUUCAUGCCUACAATT against 2310011G06Rik", "z-score": "inactive: 0.243"}
{"sequence": "GAGCUUGUUCACAUGUUUCTT against Tnfsf12", "z-score": "inactive: -0.0848"}
{"sequence": "GGCUCAGCACAAUGACUCUTT against Grem1", "z-score": "inactive: 1.03"}
{"sequence": "CCCAGCUUAUACUCUUAAGTT against Fez1", "z-score": "inactive: 0.454"}
{"sequence": "GGUCAUGGAUUGCUUUUUATT against 1110032N12Rik", "z-score": "inactive: -0.692"}
{"sequence": "GCUCUUGGUGGAUCAUCAATT against Foxo3", "z-score": "inactive: -0.31"}
{"sequence": "GCCUUCCUCCGUUAAUCCATT against Ankrd25", "z-score": "inactive: -0.169"}
{"sequence": "GCAACUGAGUCGUAAGUUCTT against Tbc1d12", "z-score": "inactive: -0.186"}
{"sequence": "CGGUGUAAGUCUGGCUUUGTT against BC027828", "z-score": "inactive: 0.155"}
{"sequence": "CCUUCCUGUCCAUGUACCUTT against Olfr412", "z-score": "inactive: 1.37"}
{"sequence": "GCCUAGAUGACCUCAAUGUTT against AI450540", "z-score": "inactive: -0.756"}
{"sequence": "CCUUAGGUCUAAGUAAUCUTT against Dnase1l1", "z-score": "inactive: -0.164"}
{"sequence": "CGCAAUAGUCUUAAACCCUTT against Lpxn", "z-score": "inactive: -0.102"}
{"sequence": "CCACCUAUCCUAUUGACGATT against Tsta3", "z-score": "inactive: 1.29"}
{"sequence": "GGGAUACUUGCUCAAUGAGTT against Irf1", "z-score": "inactive: 1.12"}
{"sequence": "GCUAUGGGUAAACUUUUUGTT against Olfr354", "z-score": "inactive: 0.196"}
{"sequence": "GGUUUCAUGAAAGAGGAGCTT against Cbs", "z-score": "inactive: -0.85"}
{"sequence": "GCUAUGCUUAUUGUAUUGATT against Fut11", "z-score": "inactive: 1.16"}
{"sequence": "CCACACAUUUAAAAUGGCGTT against Ctsh", "z-score": "inactive: 0.244"}
{"sequence": "GCUCGAACAUCUCUUGGUCTT against Capn9", "z-score": "inactive: 1.68"}
{"sequence": "CCAUUGAUAUUAAAUCGCUTT against Pik3cg", "z-score": "inactive: 1.07"}
{"sequence": "GGCUAUUAACAUGCAUAGATT against Ear6", "z-score": "inactive: -0.519"}
{"sequence": "GGUUAUGCCUUCAGUGAAGTT against Prep", "z-score": "inactive: 0.51"}
{"sequence": "GCUCCAAAUCAGUGUGCAATT against LOC209380", "z-score": "inactive: -3.16"}
{"sequence": "GCCUUAUGGUUUUGUAUUUTT against Nap1l1", "z-score": "inactive: -2.2"}
{"sequence": "GGUCUCAUUGUUGGAAGAGTT against 4930433N12Rik", "z-score": "inactive: 0.798"}
{"sequence": "GGAUGCACAUUCCUCUACATT against AI586120", "z-score": "inactive: 0.621"}
{"sequence": "GGCAAACUUUAACUCCACATT against Fastk", "z-score": "inactive: -0.463"}
{"sequence": "CCAUUACAUCCAUUUGAUUTT against 1700003M02Rik", "z-score": "inactive: 1.6"}
{"sequence": "GGAUAAUGAAGAAUGCCAATT against Abca4", "z-score": "inactive: 1.67"}
{"sequence": "CCAACAGGAGAUACAAUUATT against Pclo", "z-score": "inactive: -2.13"}
{"sequence": "GGUGAGAUAGGUCUAGUUGTT against Col10a1", "z-score": "inactive: 1.08"}
{"sequence": "CCCUACAAACCAUCUGGUUTT against Aga", "z-score": "inactive: -0.416"}
{"sequence": "GGGUCUUCACAUAUCUCAUTT against Tep1", "z-score": "inactive: 2.83"}
{"sequence": "GGAAGACUGGUACACAUAATT against 1200015A22Rik", "z-score": "inactive: -2.36"}
{"sequence": "GCUUGUGGCCAUAGCAGUUTT against A730024F05Rik", "z-score": "inactive: 2.27"}
{"sequence": "GGAGUACAUCUUAGACAAATT against Tram2", "z-score": "inactive: -1.97"}
{"sequence": "GCGCAUGAAUUCGUGCAACTT against Hoxb6", "z-score": "inactive: 1.97"}
{"sequence": "GCUAGAAAUGAGGUGCGCCTT against Mapkapk5", "z-score": "inactive: -0.137"}
{"sequence": "GGUUAGUUGGCAAGUGUAATT against Cd1d1", "z-score": "inactive: 0.063"}
{"sequence": "GGAUUAUGACUCCUAGCGCTT against Drap1", "z-score": "inactive: -0.181"}
{"sequence": "CAGCAGUGCACAGAAAUGGTT against Olfr12", "z-score": "inactive: -1.21"}
{"sequence": "GCGAAUGAUAGAUCCUGUCTT against Stx17", "z-score": "inactive: -0.979"}
{"sequence": "CCGUGGGUUUUUUGAAUCUTT against Slc6a1", "z-score": "inactive: 0.363"}
{"sequence": "GGACAACACCUAUUUAGUGTT against Cdk5rap3", "z-score": "inactive: -0.209"}
{"sequence": "GGACAUUCAUGGUGAUAGCTT against Sfrs14", "z-score": "inactive: 0.321"}
{"sequence": "GGCGAUGAGAAGUUUGAAUTT against Sbds", "z-score": "inactive: -0.239"}
{"sequence": "GGGAAAUGUUGUAGUAGAUTT against Rarsl", "z-score": "inactive: 1.17"}
{"sequence": "GGCUGAAGACUUGAAAACGTT against Tipin", "z-score": "inactive: 0.0451"}
{"sequence": "GCUUGUUAAAAUUGGAAAGTT against Kif11", "z-score": "inactive: -1.98"}
{"sequence": "GGUAACAACUUUUAAGCCUTT against Prps2", "z-score": "inactive: 0.543"}
{"sequence": "GCCACCUAAUUGAUUUCCGTT against Ggtl3", "z-score": "inactive: -0.0288"}
{"sequence": "CGGCAACAACAUCACUCGGTT against Slit1", "z-score": "inactive: -0.176"}
{"sequence": "CCCUUUCACAAAUAGCACATT against Crb3", "z-score": "inactive: -0.263"}
{"sequence": "CGUAGCAAUCAACAAUAUCTT against Pcdhb17", "z-score": "inactive: -0.426"}
